The supplement of paper PMC7666118
This is one part of the list.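 Rule for the calls: active = dose-dependent thermal stabilisation significant by F-test of dose-response against flat model at 10% FDR; inactive = not significant.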

Sequences of proteins named here, by UniProt entry; tags and fusion partners are left off. A change or cut given only in a name is not applied to a line headed by its entry.
UniProt Q9UBK8: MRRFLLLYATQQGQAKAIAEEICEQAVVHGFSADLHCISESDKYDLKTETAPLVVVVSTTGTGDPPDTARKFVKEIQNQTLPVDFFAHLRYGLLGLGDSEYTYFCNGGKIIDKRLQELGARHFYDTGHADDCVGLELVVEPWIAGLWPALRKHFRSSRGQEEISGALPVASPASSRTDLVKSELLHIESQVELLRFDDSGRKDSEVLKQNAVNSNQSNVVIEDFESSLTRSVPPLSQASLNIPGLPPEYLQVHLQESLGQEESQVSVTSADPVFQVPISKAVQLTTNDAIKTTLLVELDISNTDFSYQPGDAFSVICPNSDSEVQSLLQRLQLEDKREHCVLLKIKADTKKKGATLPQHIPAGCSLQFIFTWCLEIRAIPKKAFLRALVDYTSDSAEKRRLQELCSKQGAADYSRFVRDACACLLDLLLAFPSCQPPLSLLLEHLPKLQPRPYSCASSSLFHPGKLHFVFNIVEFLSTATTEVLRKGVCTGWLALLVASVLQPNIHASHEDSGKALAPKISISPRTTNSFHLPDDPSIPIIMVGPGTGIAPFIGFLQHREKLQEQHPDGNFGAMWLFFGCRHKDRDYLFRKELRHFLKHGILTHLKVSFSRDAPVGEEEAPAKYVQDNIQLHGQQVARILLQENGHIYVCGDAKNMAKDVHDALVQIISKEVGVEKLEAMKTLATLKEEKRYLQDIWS
UniProt Q8IVH4: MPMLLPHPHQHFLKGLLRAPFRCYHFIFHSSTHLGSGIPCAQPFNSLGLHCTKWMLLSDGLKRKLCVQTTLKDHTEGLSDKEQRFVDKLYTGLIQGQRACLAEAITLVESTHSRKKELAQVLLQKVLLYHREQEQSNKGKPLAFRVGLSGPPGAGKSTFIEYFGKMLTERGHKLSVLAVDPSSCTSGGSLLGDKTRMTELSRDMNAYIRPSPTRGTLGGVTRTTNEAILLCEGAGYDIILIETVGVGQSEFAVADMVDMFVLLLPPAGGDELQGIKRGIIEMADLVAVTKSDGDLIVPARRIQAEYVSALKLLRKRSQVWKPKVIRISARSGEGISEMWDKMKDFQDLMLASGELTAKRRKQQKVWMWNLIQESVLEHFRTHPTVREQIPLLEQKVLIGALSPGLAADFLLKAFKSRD
UniProt Q9UHC7: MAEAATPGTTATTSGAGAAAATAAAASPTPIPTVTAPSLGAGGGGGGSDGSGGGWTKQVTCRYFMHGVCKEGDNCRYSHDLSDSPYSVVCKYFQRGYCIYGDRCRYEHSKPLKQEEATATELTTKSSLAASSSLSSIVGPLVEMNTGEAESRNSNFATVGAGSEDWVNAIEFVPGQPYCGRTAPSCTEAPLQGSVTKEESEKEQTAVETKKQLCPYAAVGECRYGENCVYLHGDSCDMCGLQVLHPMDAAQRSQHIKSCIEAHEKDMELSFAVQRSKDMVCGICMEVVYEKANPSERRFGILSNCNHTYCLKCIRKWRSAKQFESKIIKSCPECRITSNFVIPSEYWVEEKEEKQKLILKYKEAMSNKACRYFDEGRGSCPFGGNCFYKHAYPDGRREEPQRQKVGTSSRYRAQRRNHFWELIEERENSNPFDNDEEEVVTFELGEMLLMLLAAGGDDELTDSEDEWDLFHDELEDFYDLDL
UniProt Q3MHD2: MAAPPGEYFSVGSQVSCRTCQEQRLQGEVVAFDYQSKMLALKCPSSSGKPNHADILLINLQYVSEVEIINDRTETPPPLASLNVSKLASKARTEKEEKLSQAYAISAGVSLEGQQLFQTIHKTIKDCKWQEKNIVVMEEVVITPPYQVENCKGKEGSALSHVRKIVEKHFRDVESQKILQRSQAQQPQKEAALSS
UniProt Q96GX5: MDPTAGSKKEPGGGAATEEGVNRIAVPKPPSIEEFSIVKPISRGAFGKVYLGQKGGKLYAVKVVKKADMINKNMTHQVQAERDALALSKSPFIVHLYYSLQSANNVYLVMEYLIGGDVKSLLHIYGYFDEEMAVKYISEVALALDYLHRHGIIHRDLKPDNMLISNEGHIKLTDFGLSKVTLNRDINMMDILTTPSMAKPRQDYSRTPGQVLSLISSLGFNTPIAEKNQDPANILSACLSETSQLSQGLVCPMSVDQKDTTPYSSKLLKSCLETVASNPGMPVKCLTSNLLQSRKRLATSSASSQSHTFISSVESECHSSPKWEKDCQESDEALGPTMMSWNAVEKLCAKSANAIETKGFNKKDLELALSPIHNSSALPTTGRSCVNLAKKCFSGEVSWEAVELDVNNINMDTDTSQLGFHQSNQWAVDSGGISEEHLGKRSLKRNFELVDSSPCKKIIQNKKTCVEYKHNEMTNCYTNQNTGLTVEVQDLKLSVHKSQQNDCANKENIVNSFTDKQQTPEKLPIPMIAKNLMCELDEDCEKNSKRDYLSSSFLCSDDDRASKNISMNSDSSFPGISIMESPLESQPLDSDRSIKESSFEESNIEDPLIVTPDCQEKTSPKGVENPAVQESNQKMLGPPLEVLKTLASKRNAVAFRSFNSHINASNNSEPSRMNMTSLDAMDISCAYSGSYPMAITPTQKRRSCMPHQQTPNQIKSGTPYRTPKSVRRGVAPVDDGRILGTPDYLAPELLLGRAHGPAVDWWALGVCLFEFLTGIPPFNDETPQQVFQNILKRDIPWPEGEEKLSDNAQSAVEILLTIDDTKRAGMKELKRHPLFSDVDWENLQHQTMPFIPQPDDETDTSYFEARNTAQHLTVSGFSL
UniProt O95819: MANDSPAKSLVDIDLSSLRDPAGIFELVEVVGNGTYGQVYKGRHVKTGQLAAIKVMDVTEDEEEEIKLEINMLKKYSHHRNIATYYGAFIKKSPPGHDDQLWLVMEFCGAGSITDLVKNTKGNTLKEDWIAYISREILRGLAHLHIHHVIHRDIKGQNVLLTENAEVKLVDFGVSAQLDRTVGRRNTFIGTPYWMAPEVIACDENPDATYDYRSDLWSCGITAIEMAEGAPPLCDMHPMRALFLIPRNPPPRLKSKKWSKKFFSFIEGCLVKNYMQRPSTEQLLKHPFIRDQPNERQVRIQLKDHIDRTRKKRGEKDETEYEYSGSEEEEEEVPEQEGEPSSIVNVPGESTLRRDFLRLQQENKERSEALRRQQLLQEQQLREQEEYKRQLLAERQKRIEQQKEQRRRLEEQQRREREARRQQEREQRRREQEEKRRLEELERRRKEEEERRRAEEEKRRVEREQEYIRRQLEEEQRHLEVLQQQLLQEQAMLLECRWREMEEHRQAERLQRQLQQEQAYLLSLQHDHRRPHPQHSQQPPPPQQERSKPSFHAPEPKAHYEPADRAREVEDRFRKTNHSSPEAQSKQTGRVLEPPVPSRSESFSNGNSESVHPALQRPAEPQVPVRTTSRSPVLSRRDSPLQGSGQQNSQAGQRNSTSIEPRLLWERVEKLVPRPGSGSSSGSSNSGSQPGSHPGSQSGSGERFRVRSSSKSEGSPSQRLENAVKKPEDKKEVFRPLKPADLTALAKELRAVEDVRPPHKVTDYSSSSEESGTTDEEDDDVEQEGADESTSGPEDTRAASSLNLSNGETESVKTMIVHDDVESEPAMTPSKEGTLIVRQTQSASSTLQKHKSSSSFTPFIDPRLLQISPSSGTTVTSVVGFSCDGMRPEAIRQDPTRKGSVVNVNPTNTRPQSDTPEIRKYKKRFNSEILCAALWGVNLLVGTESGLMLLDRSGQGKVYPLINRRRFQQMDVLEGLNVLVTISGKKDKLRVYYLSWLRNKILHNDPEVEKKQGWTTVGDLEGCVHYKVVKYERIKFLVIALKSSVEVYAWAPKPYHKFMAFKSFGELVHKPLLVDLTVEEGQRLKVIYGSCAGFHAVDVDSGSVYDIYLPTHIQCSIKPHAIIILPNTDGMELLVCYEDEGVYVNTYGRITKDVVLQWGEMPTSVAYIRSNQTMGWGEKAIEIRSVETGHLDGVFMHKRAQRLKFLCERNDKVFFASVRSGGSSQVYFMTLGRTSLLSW
UniProt A9UHW6: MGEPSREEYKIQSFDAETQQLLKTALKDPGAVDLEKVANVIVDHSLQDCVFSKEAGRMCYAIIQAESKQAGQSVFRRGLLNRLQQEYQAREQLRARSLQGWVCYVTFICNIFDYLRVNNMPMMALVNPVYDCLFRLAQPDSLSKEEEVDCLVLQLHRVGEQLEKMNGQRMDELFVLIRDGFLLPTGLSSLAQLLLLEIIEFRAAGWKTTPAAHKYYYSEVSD
UniProt Q9Y333: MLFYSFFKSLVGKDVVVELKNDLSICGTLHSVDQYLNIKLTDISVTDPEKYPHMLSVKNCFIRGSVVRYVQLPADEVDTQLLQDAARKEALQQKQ
UniProt Q9NRN9: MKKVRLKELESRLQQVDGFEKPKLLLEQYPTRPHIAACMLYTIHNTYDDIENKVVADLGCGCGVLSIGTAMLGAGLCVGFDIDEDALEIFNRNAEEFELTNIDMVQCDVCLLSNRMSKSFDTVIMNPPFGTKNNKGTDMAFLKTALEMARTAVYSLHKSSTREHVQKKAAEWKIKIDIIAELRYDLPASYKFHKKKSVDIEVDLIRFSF
UniProt P35580, whole entry: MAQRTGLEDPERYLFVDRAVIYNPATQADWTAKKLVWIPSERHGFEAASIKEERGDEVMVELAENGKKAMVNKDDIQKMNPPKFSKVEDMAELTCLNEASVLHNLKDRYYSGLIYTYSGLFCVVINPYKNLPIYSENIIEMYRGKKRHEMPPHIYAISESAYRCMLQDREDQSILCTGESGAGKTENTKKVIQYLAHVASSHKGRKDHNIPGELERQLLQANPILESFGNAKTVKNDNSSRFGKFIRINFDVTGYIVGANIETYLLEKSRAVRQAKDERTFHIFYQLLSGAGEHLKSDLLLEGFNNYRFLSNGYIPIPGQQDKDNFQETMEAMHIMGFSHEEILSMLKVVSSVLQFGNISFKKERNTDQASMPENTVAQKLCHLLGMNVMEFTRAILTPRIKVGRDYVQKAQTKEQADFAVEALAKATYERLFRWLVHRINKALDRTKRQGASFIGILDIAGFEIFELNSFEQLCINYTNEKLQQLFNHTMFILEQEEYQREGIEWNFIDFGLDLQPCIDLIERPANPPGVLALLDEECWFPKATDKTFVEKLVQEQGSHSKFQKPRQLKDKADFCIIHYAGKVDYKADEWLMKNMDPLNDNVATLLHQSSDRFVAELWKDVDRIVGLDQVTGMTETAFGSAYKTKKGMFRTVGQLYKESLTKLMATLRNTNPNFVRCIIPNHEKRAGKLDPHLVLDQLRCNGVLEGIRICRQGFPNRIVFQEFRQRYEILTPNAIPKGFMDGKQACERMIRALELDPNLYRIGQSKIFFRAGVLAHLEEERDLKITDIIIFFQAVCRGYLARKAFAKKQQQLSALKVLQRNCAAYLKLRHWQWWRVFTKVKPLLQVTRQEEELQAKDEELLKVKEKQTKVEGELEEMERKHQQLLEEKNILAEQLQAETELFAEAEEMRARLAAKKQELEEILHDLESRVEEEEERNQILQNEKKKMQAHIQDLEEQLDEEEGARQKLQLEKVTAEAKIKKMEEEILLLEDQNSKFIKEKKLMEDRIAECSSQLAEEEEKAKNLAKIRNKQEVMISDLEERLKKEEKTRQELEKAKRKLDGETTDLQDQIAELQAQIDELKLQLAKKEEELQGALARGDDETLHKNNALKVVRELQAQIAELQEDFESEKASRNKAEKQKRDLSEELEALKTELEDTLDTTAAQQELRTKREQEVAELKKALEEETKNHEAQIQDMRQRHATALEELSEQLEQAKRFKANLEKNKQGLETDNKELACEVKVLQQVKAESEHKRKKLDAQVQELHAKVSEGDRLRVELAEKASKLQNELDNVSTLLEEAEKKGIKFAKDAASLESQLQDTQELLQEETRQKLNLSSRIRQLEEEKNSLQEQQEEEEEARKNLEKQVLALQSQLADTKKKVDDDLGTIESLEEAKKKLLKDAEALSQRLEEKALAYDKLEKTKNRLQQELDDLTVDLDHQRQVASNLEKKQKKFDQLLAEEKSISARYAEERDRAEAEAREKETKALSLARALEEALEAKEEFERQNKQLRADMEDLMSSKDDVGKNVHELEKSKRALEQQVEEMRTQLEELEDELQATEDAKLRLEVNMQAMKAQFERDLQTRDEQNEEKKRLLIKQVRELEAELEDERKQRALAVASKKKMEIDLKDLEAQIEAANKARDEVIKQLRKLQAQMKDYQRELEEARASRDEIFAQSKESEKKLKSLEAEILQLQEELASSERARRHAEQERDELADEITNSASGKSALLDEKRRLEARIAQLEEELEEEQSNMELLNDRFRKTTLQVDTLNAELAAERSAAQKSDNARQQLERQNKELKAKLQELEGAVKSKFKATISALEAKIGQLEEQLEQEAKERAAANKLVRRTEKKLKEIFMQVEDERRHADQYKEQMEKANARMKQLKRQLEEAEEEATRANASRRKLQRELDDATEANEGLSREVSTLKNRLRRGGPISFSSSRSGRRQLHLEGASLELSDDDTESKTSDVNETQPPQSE
UniProt O14950, whole entry: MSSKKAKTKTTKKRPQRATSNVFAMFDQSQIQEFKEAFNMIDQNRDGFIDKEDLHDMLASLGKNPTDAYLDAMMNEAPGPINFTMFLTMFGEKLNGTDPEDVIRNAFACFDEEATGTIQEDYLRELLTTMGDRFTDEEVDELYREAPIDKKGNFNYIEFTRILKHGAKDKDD

The targets below were run with Nc1nc2c(ncn2[C@@H]2O[C@H](COP(=O)(O)OP(=O)(O)OP(=O)(O)O)[C@@H](O)[C@H]2O)c(=O)[nH]1 (assay: dose-dependent thermal stabilisation call (2D-TPP, DLPTP, 10% FDR) (binary (1 = stabilised)); higher = stabilised by the compound). Conditions: system: Jurkat gel-filtered lysate; concentration range 1-500 µM.

Target | dose-dependent thermal stabilisation call
MMADHC (UniProt Q9H3L0) | inactive: 0
MTRR (UniProt Q9UBK8) | inactive: 0
LYPLA2 (UniProt O95372) | inactive: 0
LRRFIP1 (UniProt Q32MZ4) | inactive: 0
MYD88 (UniProt Q99836) | inactive: 0
MTMR1 (UniProt Q13613) | inactive: 0
LRWD1 (UniProt Q9UFC0) | active: 1
MAP2K4 (UniProt P45985) | active: 1
LRRC45 (UniProt Q96CN5) | inactive: 0
MCM2 (UniProt P49736) | inactive: 0
MMAA (UniProt Q8IVH4) | active: 1
MED7 (UniProt O43513) | inactive: 0
MBNL1 (UniProt Q9NR56) | inactive: 0
MKRN1 (UniProt Q9UHC7) | inactive: 0
MED22 (UniProt Q15528) | inactive: 0
LSM12 (UniProt Q3MHD2) | inactive: 0
MTA1 (UniProt Q13330) | inactive: 0
MASTL (UniProt Q96GX5) | inactive: 0

Copied from the results shown (two entries):
Target | dose-dependent thermal stabilisation call
MTA1 (UniProt Q13330) | inactive: 0
MASTL (UniProt Q96GX5) | inactive: 0

(listing goes on)

Target | dose-dependent thermal stabilisation call
MAP4K4 (UniProt O95819) | inactive: 0
MIF4GD (UniProt A9UHW6) | inactive: 0
LRRC47 (UniProt Q8N1G4) | inactive: 0
MAT2A (UniProt P31153) | inactive: 0
MLKL (UniProt Q8NB16) | active: 1
MKLN1 (UniProt Q9UL63) | inactive: 0
LSM2 (UniProt Q9Y333) | inactive: 0
MRPS28 (UniProt Q9Y2Q9) | inactive: 0
LRSAM1 (UniProt Q6UWE0) | inactive: 0
MTDH (UniProt Q86UE4) | inactive: 0
MAML1 (UniProt Q92585) | inactive: 0
METTL5 (UniProt Q9NRN9) | inactive: 0
MYH10 (UniProt P35580) | inactive: 0
MIA3 (UniProt Q5JRA6) | inactive: 0
MFHAS1 (UniProt Q9Y4C4) | active: 1
LSM14A (UniProt Q8ND56) | inactive: 0
MOB3A (UniProt Q96BX8) | inactive: 0
MYL12B (UniProt O14950) | inactive: 0
